# Values from PubChem BioAssay AID504774 (Drosophila RNAi Screening Center, 2011).
# Aim: 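Fly genes whose loss alters survival after alkylation damage to DNA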 (primary screen)
# System: Drosophila Kc167 cells
# Knock-down reagent: long dsRNA against Drosophila genes, about 0.25 µg dsRNA per well
# Duration: about 6 days: 3 days knock-down, then 3 days with or without MMS
# Conditions: methyl methanesulphonate 0.004% (w/v) for 3 days after knock-down
# Measured: 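ATP-dependent luminescence as a measure of live cells in MMS-exposed wells, quantile normalised within each plate, with replicate values also given as a mean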
# Reading the numbers: mean viability with MMS: higher = more surviving cells after MMS
# The deposit covers about 23,000 reagents; below is a random part of those that have a named target and a result. 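Values are quantile-normalised luminescence on an arbitrary scale; higher means more cells surviving MMS.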 A plus sign joins genes that one reagent is predicted to hit. Not all columns of the deposit are shown.
target gene,dsRNA,mean viability with MMS
CG12419 (retired record),DRSC14513,3.48e6
swaPsi,DRSC21685,3.56e6
CG7084,DRSC16194,3.66e6
SamDC,DRSC03429,3.67e6
CG7702,DRSC16293,3.47e6
eEF1gamma,DRSC16659,3.29e6
SIDL,DRSC16077,3.68e6
HisCl1,DRSC14945,3.64e6
Cib2,DRSC04535,3.61e6
CG31683 + CG18858,DRSC02703,3.62e6
Mi-2 + Su(Tpl),DRSC09640,3.54e6
CG7656,DRSC10900,3.51e6
CG15036,DRSC17968,3.50e6
CG32228,DRSC22296,3.46e6
inaE,DRSC19376,3.60e6
inaE,DRSC19377,3.60e6
inaE,DRSC19379,3.58e6
inaE,DRSC19726,3.66e6

A few values from the entries so far.
Under “mean viability with MMS”, CG7702 [DRSC16293] shows 3.47e6
Under “mean viability with MMS”, SamDC [DRSC03429] reads 3.67e6

The list goes on:
target gene,dsRNA,mean viability with MMS
Tsp66E,DRSC09683,3.53e6
CG32830 (retired record),DRSC01162,3.02e6
CG32830 (retired record),DRSC23151,3.65e6
CG17047,DRSC06648,3.87e6
Muc96D,DRSC13709,3.58e6
Muc96D,DRSC21609,3.78e6
Muc96D,DRSC23213,3.49e6
zip,DRSC04725,3.61e6
zip,DRSC22489,3.58e6
CG31226,DRSC21724,3.16e6
